By UniProt entry, the sequences of proteins in these tests, tags left out.
UniProt P27695, whole entry, looked up: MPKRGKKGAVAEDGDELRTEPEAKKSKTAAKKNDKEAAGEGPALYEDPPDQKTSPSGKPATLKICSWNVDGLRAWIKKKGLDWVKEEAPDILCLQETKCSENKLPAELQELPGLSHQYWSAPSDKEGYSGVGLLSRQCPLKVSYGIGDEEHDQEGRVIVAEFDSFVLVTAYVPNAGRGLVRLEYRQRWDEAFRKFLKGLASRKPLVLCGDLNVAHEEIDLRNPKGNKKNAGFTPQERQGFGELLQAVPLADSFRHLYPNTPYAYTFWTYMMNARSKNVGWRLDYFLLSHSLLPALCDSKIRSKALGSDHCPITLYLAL

Hit rate of the full screen: of about 350,000 compounds, about 1,200 (0.34%) were called active. This list was built around the results that the source calls inconclusive (neither active nor inactive); the mix of calls is not that of the screen. The call rests on the fitted dose curve; in most records, active means well fitted inhibition curve with a large enough effect; inconclusive means small, poorly fitted or top-dose-only effect; inactive means no such curve, though single readings can be large or run the other way. Potencies of inconclusive entries are doubtful fits and often do not repeat.
These compounds were tested against DNA repair nuclease/redox regulator APEX1 (Homo sapiens) (UniProt P27695) (assay: qHTS Assay for Inhibitors of the Human Apurinic/apyrimidinic Endonuclease 1 (APE1)). Conditions: recombinant APE1, TAMRA/BHQ-2 abasic DNA cleavage fluorescence; series mostly up to 65.8 µM.
Text: The apurinic/apyrimidinic endonuclease APE1 is the primary mammalian enzyme responsible for the removal of abasic (or AP) sites in DNA and functions centrally in the base excision DNA repair (BER) pathway. […] Thus, targeting APE1 could improve the efficacy of current treatment paradigms by promoting selective sensitization or protection of diseased and normal cells, respectively.
Inhibition of APE1 activity was screened by utilizing double-stranded short substrate containing tetrahydrofuran (THF) abasic site labeled with rhodamine-type fluorophore (TAMRA) at the 5'-end and with non-fluorescent Black Hole Quencher-2 (BHQ-2) at the opposing 3'-end. An increase in the fluorescence intensity due to incision of the abasic site by APE1 was used to measure the enzyme activity.
NIH Chemical Genomics Center [NCGC]
NIH Molecular Libraries Probe Centers Network [MLPCN]
Assay Provider: David M. Wilson, III, National Institute on Aging, NIH
Three uL of enzyme solution (0.75 nM APE1 final concentration) was dispensed to 1536-well Greiner black solid bottom plates. […] The plates were incubated for 15 min at room temperature, and then 1 uL of substrate solution (50 nM final concentration of TAMRA/BHQ-2) was added to start the reaction. The plates were immediately transferred into ViewLux High-throughput CCD imager (Perkin-Elmer) in order to measure the reaction progress in kinetic mode (three reads every 60 seconds) using 525 nm excitation and 598 nm emission fluorescence protocol. The fluorescence intensity difference between the third and the first time points was used to compute reaction progress. Results were normalized to buffer only columns and NSC13755 positive controls and negative control DMSO treated wells.
`CC(C)Oc1ccc(C(CC(=O)NCCCN(C)C)c2ccc(F)cc2)cc1` (centres undefined) was tested, and the Potency was “inactive”.
For `Cc1cc(/C=C2\C(=N)N3N=C(S(C)(=O)=O)SC3=NC2=O)c(C)n1Cc1ccccc1`, the Potency was inconclusive: 39.8 µM [inhibitor, single point].
In the case of `O=C(O)c1ccc2c(c1)C(=O)/C(=C/c1ccccc1)C2=O`, the Potency was inconclusive: 15.8 µM [inhibitor, partial curve, poor fit].
`O=C(N/N=C/c1cccc(O)c1)c1ccc(NC(=O)C2CCCCC2)cc1` was tested, and the Potency was inconclusive: 33.6 µM [inhibitor, single point].
`O=C(CCOc1ccccc1)N1CCN(S(=O)(=O)c2cccs2)CC1` was tested, and the Potency was “inactive”.
With `COC(=O)C1=C(C)NC(C)=C(C(=O)OC)C1c1ccc(OC(=O)c2oc3ccccc3c2C)c(OC)c1` the Potency was inconclusive: 7.08 µM [inhibitor, partial curve].
For `COC(=O)c1ccccc1-c1ccc(/C=N/NC(=O)c2cc3ccccc3o2)o1`, the Potency was “inactive”.
`O=C(O)C1C2CCC(O2)C1C(=O)Nc1ccc(F)c(Cl)c1` (centres undefined) was tested, and the Potency was “inactive”.
With `CC(C)(C)c1ccc(NC(=O)COC(=O)C2(C)CC2(Cl)Cl)cc1` (centres undefined) the Potency was inconclusive: 10 µM [inhibitor, full curve].
`COc1ccc(C2=Nn3c(nnc3-c3cccc(OC)c3OC)SC2)cc1` was tested, and the Potency was “inactive”.
`CC(=O)C1C(=O)CC(c2ccc(Cl)cc2)CC1=O` (centres undefined) was tested, and the Potency was inconclusive: 3.98 µM [inhibitor, single point].
In the case of `COC(=O)[C@H]1CC2(CC=C(C)C)C(=O)[C@@](CC=C(C)C)(C(=O)C(C(=O)c3ccccc3)=C2OC)C1(C)C` (tested in a mixture with another compound), the Potency was “inactive”.
In the case of `C/C(=N/NC(=O)CSCc1ccc(Cl)cc1)c1cccc(NC(=O)c2ccccc2)c1`, the Potency was inconclusive: 3.98 µM [inhibitor, single point].
In the case of `CCOC(=O)c1c(NC(=O)COC(=O)c2ccc(NC(=O)CC#N)cc2)sc(C(=O)NC)c1C`, the Potency was inconclusive: 26.7 µM [inhibitor, single point].
In the case of `CC(C)[C@@H](C(=O)N1CCNCC1)n1cc(CCO)nn1`, the Potency was inconclusive: 28.2 µM [inhibitor, partial curve].
For `COc1ccc(NC(=O)CSc2ncn(-c3ccccc3)n2)cc1Cl`, the Potency was “inactive”.
For `CC(C)C[C@H](NC(=O)c1[nH]cnc1C(=O)N[C@@H](C)c1ccccc1)C(=O)OC(C)(C)C`, the Potency was inconclusive: 20 µM [inhibitor, partial curve, poor fit].
In the case of `OC(CNCc1ccc(Cl)cc1)(c1ccccc1)c1ccc(F)cc1` (centres undefined), the Potency was inconclusive: 44.7 µM [inhibitor, partial curve, poor fit].
In the case of `Cc1cc(C)c2c(=O)n(CC(=O)NC3CCCC3)sc2n1`, the Potency was “inactive”.
For `CCN(CC)CCCCN1c2ccccc2Sc2ccccc21`, the Potency was “inactive”.
With `Cc1cc(/C=C2\NC(=O)NC2=O)c(C)n1-c1ccc(N2CCOCC2)cc1` the Potency was “inactive”.
In the case of `COc1ccc(Cl)cc1NC(=O)COC(=O)c1ccc(C)o1`, the Potency was inconclusive: 15 µM [inhibitor, single point].
With `CCOC(=O)c1c(NC(=O)CNC2CCCCC2)sc(C)c1C` the Potency was inconclusive: 44.7 µM [inhibitor, single point].
`COc1cccc(NC(=O)COC(=O)/C=C/c2ccco2)c1` was tested, and the Potency was inconclusive: 18.9 µM [inhibitor, single point].
For `CCOC(=O)C(Nc1ccc2ccccc2c1)C(=O)OCC`, the Potency was “inactive”.
`O=C(COC(=O)c1ccc([N+](=O)[O-])s1)c1ccc[nH]1` was tested, and the Potency was inconclusive: 37.7 µM [inhibitor, single point].
With `Cc1nc2cnc(Nc3ccccc3)nc2n(CCc2ccccc2)c1=O` the Potency was inconclusive: 20 µM [inhibitor, single point].
In the case of `O=C(O)c1cc2c(o1)CCC/C2=N\O`, the Potency was “inactive”.
`COc1cc2c(cc1OC)C(c1ccccc1)=NCC2` was tested, and the Potency was inconclusive: 44.7 µM [inhibitor, single point].
In the case of `COc1ccc(C)cc1NC(=O)c1[nH]c(C)c(C(C)=O)c1C`, the Potency was inconclusive: 2 µM [inhibitor, full curve, poor fit].
For `Cc1nc(N=Nc2cc([N+](=O)[O-])ccc2Cl)c(COP(=O)(O)O)c(C=O)c1O`, the Potency was active: 35.5 µM.
`COC(=O)[C@@H]1CC[C@H](C)[C@@H](c2ccc(C)cc2)N1C(=O)c1ccc(/C=N\O[C@@H](C)c2cn([C@H]3COC[C@H]3O)nn2)cc1` was tested, and the Potency was inconclusive: 3.55 µM [inhibitor, single point].
With `Oc1ccc(-c2nc3ccccn3c2NCc2ccc3c(c2)OCO3)cc1` the Potency was inconclusive: 28.2 µM [inhibitor, partial curve, poor fit].
For `COCCN=c1scc(-c2ccco2)n1/N=C/c1ccc(O)c(O)c1O`, the Potency was active: 8.91 µM.
For `Cc1ccc(NC(=O)CN2C(=O)NC3(CCc4ccccc43)C2=O)cc1` (centres undefined), the Potency was “inactive”.
For `CC(=O)OC[C@@H]1O[C@H](C/C=N\O[C@@H](C)c2cc(-c3c(C)cc(C)cc3C)no2)C=C[C@@H]1OC(C)=O`, the Potency was inconclusive: 3.16 µM [inhibitor, single point].
For `CCC12CN3CC(CC)(CN(C1)C3c1c(O)ccc3ccccc13)C2=O` (centres undefined), the Potency was “inactive”.
With `COC(=O)c1cc(S(=O)(=O)N2CCCC2)c(Cl)cc1Cl` the Potency was “inactive”.
`Cc1cc(N2C(=O)C=CC2=O)c([N+](=O)[O-])cc1C` was tested, and the Potency was “inactive”.
In the case of `O=c1c(OC2OC(CO)C(O)C(O)C2OC2OC(CO)C(O)C(O)C2O)c(-c2ccc(O)cc2)oc2cc(O)cc(O)c12` (centres undefined), the Potency was active: 8.91 µM.
In the case of `Cc1cc(C)c2nc(-c3ccccn3)cc(C(=O)Nc3ccc(S(=O)(=O)Nc4onc(C)c4C)cc3)c2c1`, the Potency was inconclusive: 39.8 µM [inhibitor, single point].
With `O=C1NC(=O)/C(=C/c2cccn2-c2ccc(P(=O)(O)O)cc2)N1` the Potency was “inactive”.
`CCC(C)n1cnc2c(c1=O)c1nc3ccccc3nc1n2Cc1ccc(OC)cc1` (centres undefined) was tested, and the Potency was “inactive”.
With `COc1ccc(NC(=O)c2ccc(NS(=O)(=O)c3c(C)noc3C)cc2)cc1OC` the Potency was inconclusive: 0.0028 µM [inhibitor, full curve, poor fit].
For `CCOC(=O)c1c(C(F)(F)C(F)(F)C(F)(F)C(F)(F)F)n[nH]c1C`, the Potency was inconclusive: 31.6 µM [inhibitor, single point].
For `CCCC(=O)NCCc1c2n(c3ccc(OC)cc13)Cc1ccccc1-2`, the Potency was inconclusive: 0.794 µM [inhibitor, full curve].
`O=C(CSc1n[nH]c(=O)[nH]c1=O)Nc1ccc2c(c1)C(=O)c1ccccc1C2=O` was tested, and the Potency was inconclusive: 39.8 µM [inhibitor, single point].
In the case of `COc1ccc(C2CC(c3ccccc3OC(C)=O)=NN2C(=O)/C=C/c2ccccc2)cc1OC` (centres undefined), the Potency was inconclusive: 15.8 µM [inhibitor, partial curve].
In the case of `O=C(NNC(=O)c1cccc(Br)c1)C(=O)N1CCCCC1`, the Potency was “inactive”.
For `CC(=O)OC[C@H]1O[C@@H](O/N=C(\C)CCN2CCCc3nc(C)c(C)cc32)[C@H](OC(C)=O)[C@@H](OC(C)=O)[C@H]1OC(C)=O`, the Potency was inconclusive: 3.16 µM [inhibitor, single point].
In the case of `COC(=O)c1c(SCC(=O)NC2CCCCC2)[nH]c2ccccc2c1=O`, the Potency was inconclusive: 23.8 µM [inhibitor, single point].
In the case of `COCCNc1nc(C)nc2c1nc(-c1ccccc1)n2CC1CCN(C)CC1`, the Potency was inconclusive: 31.6 µM [inhibitor, single point].
`C=CCCCCCCCCCCCC(O)CC(O)COC(C)=O` (centres undefined) (tested in a mixture with another compound) was tested, and the Potency was inconclusive: 11.2 µM [inhibitor, partial curve].
In the case of `O=C(NCc1ccccc1)c1cccc(Br)n1`, the Potency was “inactive”.
`Cc1cccc(/C=N/n2c(-c3cc(-c4ccccc4)n[nH]3)n[nH]c2=S)c1` was tested, and the Potency was “inactive”.
`CCNC(=O)CN(CCc1ccccc1)S(C)(=O)=O` was tested, and the Potency was inconclusive: 5.01 µM [inhibitor, single point].
`Cc1cc(C)cc(N(CC(=O)NC2CC3CCC2C3)S(C)(=O)=O)c1` (centres undefined) was tested, and the Potency was “inactive”.
With `N#Cc1cc2c(nc1SCc1ccccc1)CCCC2` the Potency was inconclusive: 17.8 µM [inhibitor, partial curve, poor fit].
For `O=C(/C=C/c1ccccc1)Nc1scc(-c2ccccc2)c1C(=O)O`, the Potency was “inactive”.
For `CC(C)CC(NC(=O)OC(C)(C)C)c1cn([C@@H](CCC(=O)OC(C)(C)C)C(=O)N2CCN(C(=O)OC(C)(C)C)CC2)nn1` (some centres undefined), the Potency was inconclusive: 39.8 µM [inhibitor, single point].
For `Cc1ccccc1-c1nn(-c2ccc(F)cc2F)cc1CNCCCN(C)C`, the Potency was “inactive”.
`O=C(O)c1cc(N=Nc2c(O)[nH]c3ccc([N+](=O)[O-])cc23)ccc1Cl` was tested, and the Potency was inconclusive: 29.9 µM [inhibitor, single point].
`COc1cccc(C(=O)NC2CCN(C(=O)N3c4ccccc4Sc4ccccc43)CC2)c1` was tested, and the Potency was inconclusive: 1.12 µM [inhibitor, full curve, poor fit].
`O=C(O)c1ccccc1SSc1ccccc1C(=O)O` was tested, and the Potency was “inactive”.
`Nc1ncnc2c1C(c1ccccc1)c1c(ccc3ccccc13)O2` (centres undefined) was tested, and the Potency was “inactive”.
In the case of `CCS(=O)(=O)c1nc(S(=O)(=O)c2ccc(C)cc2)c(N2CCN(C)CC2)s1`, the Potency was “inactive”.
`COCCc1nnc(NC(=O)C(C)C)s1` was tested, and the Potency was inconclusive: 0.0631 µM [inhibitor, full curve].
For `CCOP(=O)(OCC)/C(C#N)=C(\O)c1ccc(OC)cc1`, the Potency was inconclusive: 39.8 µM [inhibitor, single point].
For `COc1cc2[nH]c(Cl)c([N+](=O)[O-])c2cc1OC`, the Potency was inconclusive: 35.5 µM [inhibitor, single point].

Source: PubChem BioAssay AID2517 (National Center for Advancing Translational Sciences (NCATS), 2010)
Further: nearly all actives have a fitted effect of over 55% in size.
Potency means the concentration at half of the fitted maximal effect.
